Patent publication US20260226131A1 (SHANGHAI INSTITUTE OF MATERIA MEDICA CHINESE ACADEMY OF …, published 2026)
Substitutions are numbered along the chain they refer to. Names and notes keep the numbering of the source. No constants are given. Whether binding was seen depends on the method and setting. Binding calls can cover weak binding; strength is not graded here. Sequences can lack the tags named with a protein.

The chains behind the UniProt entries cited, without tags or fusion partners. Where a name states a change or a piece, a line headed by the entry shows the natural chain unless it says otherwise.
UniProt P06213: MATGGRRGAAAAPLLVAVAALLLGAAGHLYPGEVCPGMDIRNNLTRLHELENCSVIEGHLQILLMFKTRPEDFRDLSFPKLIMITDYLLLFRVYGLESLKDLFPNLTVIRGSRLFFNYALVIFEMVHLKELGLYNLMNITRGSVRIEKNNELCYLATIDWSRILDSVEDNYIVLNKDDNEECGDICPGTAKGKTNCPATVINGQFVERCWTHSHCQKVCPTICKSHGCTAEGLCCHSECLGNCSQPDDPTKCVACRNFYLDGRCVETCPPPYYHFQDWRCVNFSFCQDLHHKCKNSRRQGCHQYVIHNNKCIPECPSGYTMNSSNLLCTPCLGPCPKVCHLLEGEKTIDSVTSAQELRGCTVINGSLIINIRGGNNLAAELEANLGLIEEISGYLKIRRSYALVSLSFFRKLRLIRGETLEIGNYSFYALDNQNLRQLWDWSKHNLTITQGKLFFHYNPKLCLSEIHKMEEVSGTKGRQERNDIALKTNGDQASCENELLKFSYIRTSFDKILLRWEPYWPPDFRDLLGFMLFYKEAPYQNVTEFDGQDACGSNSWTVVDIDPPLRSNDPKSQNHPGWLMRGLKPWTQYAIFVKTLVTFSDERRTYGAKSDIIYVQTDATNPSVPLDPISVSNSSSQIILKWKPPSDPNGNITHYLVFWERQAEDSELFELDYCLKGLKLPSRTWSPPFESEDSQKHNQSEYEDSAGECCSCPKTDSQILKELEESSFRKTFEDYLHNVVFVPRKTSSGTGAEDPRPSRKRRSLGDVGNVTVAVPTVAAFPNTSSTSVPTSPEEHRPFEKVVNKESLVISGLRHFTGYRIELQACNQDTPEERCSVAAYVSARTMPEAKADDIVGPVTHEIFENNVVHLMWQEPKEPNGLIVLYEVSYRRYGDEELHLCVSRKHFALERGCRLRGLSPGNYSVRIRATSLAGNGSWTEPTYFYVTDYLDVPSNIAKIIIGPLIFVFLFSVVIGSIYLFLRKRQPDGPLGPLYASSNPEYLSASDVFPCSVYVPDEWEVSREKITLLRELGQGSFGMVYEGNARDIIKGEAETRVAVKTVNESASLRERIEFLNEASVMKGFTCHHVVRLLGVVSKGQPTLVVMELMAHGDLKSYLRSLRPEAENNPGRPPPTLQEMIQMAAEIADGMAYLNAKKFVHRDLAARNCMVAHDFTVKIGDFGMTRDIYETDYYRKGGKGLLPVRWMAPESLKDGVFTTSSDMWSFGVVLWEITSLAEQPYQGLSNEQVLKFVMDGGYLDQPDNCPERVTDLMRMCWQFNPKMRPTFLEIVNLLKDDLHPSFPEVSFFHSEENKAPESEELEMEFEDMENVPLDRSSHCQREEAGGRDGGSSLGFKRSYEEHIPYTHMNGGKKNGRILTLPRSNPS

B1: Insulin-Fc fusion protein of Example 5 (B5-A+A21G) (Fc fusion)
chain: FVNQALCGSHLVEALYLVCGERGFFYTPKTGGVGGGGIVEQCCTSICSLYQLENYCGGGGGSGGGGSGGGGSGGGGSERKSSVESPPSPAPPVAGPSVFLFPPKPKDTLMISRTPEVTCVVVDVSQEDPEVQFNWYVDGVEVHNAKTKPREEQFNSTFRVVSVLTVLHQDWLNGKEYKCKVSNKGLPSSIEKTISKTKGQPREPQVYTLPPSREEMTKNQVSLTCLVKGFYPSDIAVEWESNGQPENNYKTTPPMLDSDGSFFLYSKLTVDKSRWQQGNVFSCSVMHEALHNHYTQKSLSLSLG
B2: Insulin-Fc fusion protein of Example 6 (B16-A+A3-A+A21G) (Fc fusion)
chain: B1 chain with A5H, Y16A, V39A
B3: Insulin-Fc fusion protein of Example 7 (B25-T+B27-E A3-A+A21G) (Fc fusion)
chain: B1 chain with A5H, F25T, T27E, V39A

Target: human insulin receptor extracellular domain protein (hIRB-ECD, Sino Biological Inc.) (human) (UniProt P06213)
Experiment: ELISA, coated hIRB-ECD

binding, binds:
B1, B2, B3
